Laboratory results taken from patent publication US20080058211A1, “Method and Composition for the Modulation of Toxin Resistance in Plant Cells” (BOARD OF REGENTS, THE UNIVERSITY OF TEXAS SYSTEM, priority 2006, published 2008).
Counter-ions that a name gives are not always drawn. At least one compound was matched to its structure with a doubt left. Some results were stated once for a whole list of compounds, not compound by compound.

Key:
Arabidopsis pollen = assay: in vitro pollen germination (Arabidopsis); assay type: cell-based, Arabidopsis thaliana; conditions: water-soluble agonist plus 50 μM ATPγS
Experimental: Effects of Extracellular ATPγS and AMPαS on Pollen Germination. Arabidopsis pollen was germinated in pollen germination media (PGM) containing from about zero to about 400 μM ATPγS or AMPαS. […] The method of collection included vortexing flowers in PGM creating a homogenous suspension of pollen from tens to hundreds of flowers. This method caused the release of a small amount of ATP, 2-5 μM into the PGM (data not shown).
The nitric oxide signaling pathway mediates the inhibition of Arabidopsis pollen germination by ATPγS. To examine the downstream effectors involved in the inhibition of Arabidopsis pollen germination by ATPγS, different agonists and antagonists of the known nitric oxide signaling pathway were examined. […] Some of the nitric oxide signaling pathway agonists are water soluble while others are DMSO soluble.
Strains and Growth Conditions. For the experiments related to the nitric oxide-ATP signaling relationship, all Arabidopsis thaliana plants were ecotype Wassilewskija (WS), and Medicago truncatula plants were strain A17. All of the plants were grown in Metro-Mix 200 soil at 24° C. with constant light. In vitro Pollen Germination. […] The digital images were scored for the percent of pollen germinated using the AlphaEase software from Alpha Innotech. Pollen with tubes that were shorter than the diameter of the pollen grain were not counted as germinated or non-germinated. […]

[1] = test system: etiolated seedlings of Arabidopsis; conditions: cited from earlier work

Structure (SMILES) | effect of added NO pathway agonist on pollen germination with ATPγS (Arabidopsis pollen) | doses that inhibit hypocotyl growth [1]
CCCc1nn(C)c2c(=O)[nH]c(-c3cc(S(=O)(=O)N4CCN(C)CC4)ccc3OCC)nc12 [VIAGRA™, Sildenafil citrate] | caused 50 μM ATPγS to become inhibitory | 
Nc1ncnc2c1ncn2[C@@H]1O[C@H](COP(=O)(O)OP(O)(O)=S)[C@@H](O)[C@H]1O [ADPβS] |  | above 400 μM
Nc1ncnc2c1ncn2[C@@H]1O[C@H](COP(=O)(O)OP(=O)(O)OP(O)(O)=S)[C@@H](O)[C@H]1O [ATPγS] |  | above 400 μM
